The record followed here is PubChem BioAssay AID248 (DTP/NCI, 2004).

The list is a part of this screen's results and no random one: it is rich in T/C values a quarter to a half above the control, in often repeated tests (any T/C) and in doses without a T/C. Other doses and runs of a compound stand elsewhere. T/C: endpoint of the treated group in % of that of the vehicle group. Some doses have a count of surviving animals in place of a T/C: the source holds a T/C of zero for them, seemingly a mark for toxic or unscored doses. Some doses without a T/C left all or most animals alive at the check, yet need not have been tolerated: survival well below the control is almost never listed, so the zero probably covers shortened survival too. Survivors were counted at the toxicity check, usually on the fifth day, unless a day is given; later deaths do not show. Schedule codes are those of the source, read here as Q, the interval in days (D) or hours (H), X, the number of doses. Some molecules as drawn cover several salts, stereoisomers or complexes of the source; a dose is that of the sample tested. Where survival is the endpoint, this PubChem deposit counts one and a half times the control or more as active, and values a quarter to a half above the control carry no call in these data; other NCI protocols may use other cut-offs. Some T/C values are followed by the survivors on the day toxicity was checked, most often the fifth; without a count, all were alive then.

The assay has as its system L1210 leukemia ip in BDF1 mice, survival T/C. Briefly: NCI In Vivo Anticancer Drug Screen. Data for tumor model L1210 Leukemia (intraperitoneal) in B6D2F1 (BDF1) mice. To be noted: T/C endpoint: mean survival time, higher T/C = longer survival.
[1] abbreviates: dose: 200.0 mg/kg/injection, schedule: Q01DX009 (ip), vehicle: Klucel (hydroxypropylcellulose) (HPC).
[2] abbreviates: dose: 400.0 mg/kg/injection, schedule: Q04DX003 (ip), vehicle: saline with Tween-80.
[3] abbreviates: dose: 100.0 mg/kg/injection, schedule: Q01DX009 (ip), vehicle: Klucel (hydroxypropylcellulose) (HPC).
[4] abbreviates: dose: 300.0 mg/kg/injection, schedule: Q01DX001 (ip), vehicle: saline.
[5] abbreviates: dose: 150.0 mg/kg/injection, schedule: Q01DX001 (ip), vehicle: saline.
Where [6] appears, read: dose: 400.0 mg/kg/injection, schedule: Q01DX001 (ip), vehicle: saline.
Setting [7] is: dose: 400.0 mg/kg/injection, schedule: Q01DX001 (ip), vehicle: Klucel (hydroxypropylcellulose) (HPC).

Take `FC(F)(F)c1cc(CN(CCCl)CCCl)cc(C(F)(F)F)c1`: the T/C is, setting by setting: (dose: 5.5 mg/kg/injection, schedule: Q01DX009 (ip), vehicle: saline) 126 % of control; (dose: 400.0 mg/kg/injection, schedule: Q01DX001 (ip), vehicle: carboxymethylcellulose (CMC)) 125 % of control. Further, the survivor count is 4 of 6 (dose: 120.0 mg/kg/injection, schedule: Q01DX009 (ip), vehicle: other); 1 of 6 (dose: 200.0 mg/kg/injection, schedule: Q01DX009 (ip), vehicle: other); 5 of 6 (dose: 200.0 mg/kg/injection, schedule: Q01DX015 (ip), vehicle: carboxymethylcellulose (CMC)); 6 of 6 (dose: 266.0 mg/kg/injection, schedule: Q04DX003 (ip), vehicle: other); 4 of 5 (dose: 400.0 mg/kg/injection, schedule: Q04DX003 (ip), vehicle: other); 0 of 6 (dose: 600.0 mg/kg/injection, schedule: Q01DX001 (ip), vehicle: other). Where the note is “dose: 900.0 mg/kg/injection, schedule: Q01DX001 (ip), vehicle: other”, the survivor count is on record as 1 of 6.
In the case of `O=c1[nH]c(=O)n(C2CCCCO2)cc1F` (configuration not stated), the survivor count (dose: 320.0 mg/kg/injection, schedule: Q01DX009 (ip), vehicle: saline) is on record as 3 of 8.
In the case of `CCC1=C/C(=C\c2ccc3c(c2)OCO3)C(=O)S1`, where the note is “dose: 100.0 mg/kg/injection, schedule: Q04DX002 (ip), vehicle: saline with Tween-80”, the survivor count is recorded as 3 of 3.
Regarding `Cc1ccc2c(c1[N+](=O)[O-])C(=O)c1ccccc1C2=O`, under setting [1], the survivor count is on record as 1 of 3.
As to `COc1ccc2c(ccc[n+]2C)c1`, the survivor count reads like this: (dose: 50.0 mg/kg/injection, schedule: Q01DX009 (ip), vehicle: saline) 1 of 3; (dose: 75.0 mg/kg/injection, schedule: Q01DX009 (ip), vehicle: saline) 0 of 6; (dose: 100.0 mg/kg/injection, schedule: Q01DX009 (ip), vehicle: saline) 0 of 3; (dose: 100.0 mg/kg/injection, schedule: Q04DX003 (ip), vehicle: saline with Tween-80) 3 of 6; (dose: 150.0 mg/kg/injection, schedule: Q01DX001 (ip), vehicle: carboxymethylcellulose (CMC)) 3 of 6; (dose: 200.0 mg/kg/injection, schedule: Q01DX009 (ip), vehicle: saline) 0 of 3. For the same compound, the survivor count reads like this: (dose: 200.0 mg/kg/injection, schedule: Q04DX003 (ip), vehicle: saline with Tween-80) 0 of 6; (dose: 300.0 mg/kg/injection, schedule: Q01DX001 (ip), vehicle: carboxymethylcellulose (CMC)) 0 of 6; under setting [2], 0 of 6.
With `Cc1csc2nccc(Cl)c12`, where the note is “dose: 200.0 mg/kg/injection, schedule: Q04DX002 (ip), vehicle: saline with Tween-80”, the survivor count is reported as 2 of 3.
For `CN(C)c1ncnc2c1ncn2C1OC(CO)C(N)C1O` (configuration not stated), for the setting “dose: 50.0 mg/kg/injection, schedule: Q01DX009 (ip), vehicle: Klucel (hydroxypropylcellulose) (HPC)”, the T/C was 131 % of control. In addition, the survivor count is, setting by setting: under setting [3], 6 of 6; under setting [1], 4 of 6.
As to `Nc1ccn(C2OC(COP(=O)(O)Oc3ccccc3)C(O)C2O)c(=O)n1` (configuration not stated), the survivor count under setting [4] is on record as 1 of 6.
`[O-][n+]1ccc(CC(O)(C(F)(F)F)C(F)(F)F)cc1`: the survivor count by setting is: under setting [1], 1 of 6; (dose: 400.0 mg/kg/injection, schedule: Q01DX009 (ip), vehicle: Klucel (hydroxypropylcellulose) (HPC)) 0 of 6.
For `CCCCCCCCCCCCCC[Si](Cl)(Cl)Cl`, the survivor count under setting [4] is recorded as 2 of 6.
Take `C/C=C1/CN2CCC1CC2C(O)c1ccnc2ccc(O)cc12` (configuration not stated): the survivor count is 3 of 6 under setting [5] and 0 of 6 under setting [4].
`NC(=O)c1cc(C(N)=O)cc([N+](=O)[O-])c1`: the survivor count (dose: 200.0 mg/kg/injection, schedule: Q01DX009 (ip), vehicle: saline with Tween-80) is listed as 3 of 6 and the survivor count under setting [2] is given as 0 of 6.
For the compound `CC(C)(Br)C(=O)C(Br)Br`, the survivor count under setting [6] is recorded as 0 of 4.
Turning to `Nc1nc(N)c2cc(CNc3ccc(C(=O)NC(CC(=O)O)CC(=O)O)cc3)ccc2n1`, the T/C was 137 % of control (dose: 12.5 mg/kg/injection, schedule: Q01DX009 (ip), vehicle: saline); 144 % of control (dose: 25.0 mg/kg/injection, schedule: Q01DX009 (ip), vehicle: saline); 143 % of control (dose: 50.0 mg/kg/injection, schedule: Q01DX009 (ip), vehicle: other); 142 % of control (dose: 89.0 mg/kg/injection, schedule: Q01DX001 (ip), vehicle: other); 141 % of control (dose: 200.0 mg/kg/injection, schedule: Q01DX001 (ip), vehicle: other).
As for `CCOc1ccccc1NC(=O)Nc1cccc(Cl)c1`, the T/C under setting [3] is 140 % of control [5 of 6 alive].
For `C[n+]1ccccc1/C=C/c1ccc(O)c(O)c1`, the survivor count under setting [5] is on record as 2 of 6.
For `CC(C)CN1CCCC(=O)C(O)CCC1` (configuration not stated), the survivor count was 1 of 6 (dose: 200.0 mg/kg/injection, schedule: Q01DX001 (ip), vehicle: acetone) and 1 of 6 (dose: 400.0 mg/kg/injection, schedule: Q01DX001 (ip), vehicle: acetone).
As to `Cc1cc(N=Nc2ccc([N+](=O)[O-])cc2)ccc1O`, the survivor count under setting [7] is reported as 0 of 6.
Turning to `O=C1/C(=C/c2ccncc2)CCCc2ccccc21`, the survivor count is, setting by setting: (dose: 100.0 mg/kg/injection, schedule: Q04DX003 (ip), vehicle: carboxymethylcellulose (CMC)) 6 of 6; (dose: 400.0 mg/kg/injection, schedule: Q04DX003 (ip), vehicle: carboxymethylcellulose (CMC)) 0 of 6.
As to `NC(=NCc1ccccc1)c1ncn(C2CCCC2)c1N`, the survivor count (dose: 100.0 mg/kg/injection, schedule: Q01DX001 (ip), vehicle: Klucel (hydroxypropylcellulose) (HPC)) was 1 of 6; the survivor count (dose: 200.0 mg/kg/injection, schedule: Q01DX001 (ip), vehicle: Klucel (hydroxypropylcellulose) (HPC)) was 0 of 6; the survivor count under setting [7] was 0 of 6.
`CSc1nc(N)cc(NC(=O)CCl)n1`: the survivor count is recorded as 4 of 6 under setting [1] and 1 of 6 (dose: 400.0 mg/kg/injection, schedule: Q04DX003 (ip), vehicle: Klucel (hydroxypropylcellulose) (HPC)).
Turning to `FC(F)(F)c1cccc(NC(=S)SCc2ccc(Cl)cc2)c1`, the survivor count (dose: 400.0 mg/kg/injection, schedule: Q04DX002 (ip), vehicle: Klucel (hydroxypropylcellulose) (HPC)) is recorded as 2 of 3.
Regarding `Fc1c(F)c(F)c(Oc2c(F)c(F)c(F)c(F)c2Oc2c(F)c(F)c(F)c(F)c2F)c(F)c1F`, the survivor count runs as follows: (dose: 37.5 mg/kg/injection, schedule: Q01DX009 (ip), vehicle: Klucel (hydroxypropylcellulose) (HPC)) 1 of 6; (dose: 75.0 mg/kg/injection, schedule: Q01DX009 (ip), vehicle: Klucel (hydroxypropylcellulose) (HPC)) 2 of 6.
On to `CN(CCN1CCCCC1)C(=O)C(O)(c1ccccc1)C1CCCCC1` (configuration not stated), for which the survivor count under setting [4] is 1 of 6.
For the compound `CC(CN1c2ccccc2Sc2ccccc21)[N+](C)(C)C` (configuration not stated), the survivor count runs as follows: (dose: 200.0 mg/kg/injection, schedule: Q01DX001 (ip), vehicle: saline) 0 of 4; under setting [6], 0 of 4.
